Assay [1] deals with DNA-dependent protein kinase catalytic subunit (DNA-PKcs) (human) (UniProt P78527). In words: IP-Western in HEK293 cells transfected with ETV1-FLAG (FIG. 10).
Assay [2] deals with poly-(ADP-ribose) polymerase (PARP1) (human) (UniProt P09874). The description is as above.
Assay [3] has as its target T1, ERG, TMPRSS2:ERG gene fusion product (TMPRSS2 exon 1 fused to ERG1 exon 2) (human) (UniProt P11308).
T1 sequence (looked up): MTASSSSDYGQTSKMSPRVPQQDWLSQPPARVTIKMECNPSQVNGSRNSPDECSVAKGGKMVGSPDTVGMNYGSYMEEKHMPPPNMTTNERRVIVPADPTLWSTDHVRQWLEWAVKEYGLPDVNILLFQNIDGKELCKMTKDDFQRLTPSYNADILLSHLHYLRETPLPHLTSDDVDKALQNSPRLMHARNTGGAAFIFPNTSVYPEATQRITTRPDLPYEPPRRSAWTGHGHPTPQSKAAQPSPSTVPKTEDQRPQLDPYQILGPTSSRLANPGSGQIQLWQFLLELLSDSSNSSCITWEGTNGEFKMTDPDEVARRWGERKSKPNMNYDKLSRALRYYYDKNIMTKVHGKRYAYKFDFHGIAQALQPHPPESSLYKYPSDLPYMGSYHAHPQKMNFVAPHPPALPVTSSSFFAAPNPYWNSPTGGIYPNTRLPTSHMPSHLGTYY
The experiment in a line: IP with agarose-coupled PARP1 antibody from VCaP cells, Western blot (FIG. 9B). In general terms: A western blot detects proteins with antibodies after separation by electrophoresis.

Chains of the proteins cited; added tags and fusions are not shown. Residues count along the entry.
UniProt P78527: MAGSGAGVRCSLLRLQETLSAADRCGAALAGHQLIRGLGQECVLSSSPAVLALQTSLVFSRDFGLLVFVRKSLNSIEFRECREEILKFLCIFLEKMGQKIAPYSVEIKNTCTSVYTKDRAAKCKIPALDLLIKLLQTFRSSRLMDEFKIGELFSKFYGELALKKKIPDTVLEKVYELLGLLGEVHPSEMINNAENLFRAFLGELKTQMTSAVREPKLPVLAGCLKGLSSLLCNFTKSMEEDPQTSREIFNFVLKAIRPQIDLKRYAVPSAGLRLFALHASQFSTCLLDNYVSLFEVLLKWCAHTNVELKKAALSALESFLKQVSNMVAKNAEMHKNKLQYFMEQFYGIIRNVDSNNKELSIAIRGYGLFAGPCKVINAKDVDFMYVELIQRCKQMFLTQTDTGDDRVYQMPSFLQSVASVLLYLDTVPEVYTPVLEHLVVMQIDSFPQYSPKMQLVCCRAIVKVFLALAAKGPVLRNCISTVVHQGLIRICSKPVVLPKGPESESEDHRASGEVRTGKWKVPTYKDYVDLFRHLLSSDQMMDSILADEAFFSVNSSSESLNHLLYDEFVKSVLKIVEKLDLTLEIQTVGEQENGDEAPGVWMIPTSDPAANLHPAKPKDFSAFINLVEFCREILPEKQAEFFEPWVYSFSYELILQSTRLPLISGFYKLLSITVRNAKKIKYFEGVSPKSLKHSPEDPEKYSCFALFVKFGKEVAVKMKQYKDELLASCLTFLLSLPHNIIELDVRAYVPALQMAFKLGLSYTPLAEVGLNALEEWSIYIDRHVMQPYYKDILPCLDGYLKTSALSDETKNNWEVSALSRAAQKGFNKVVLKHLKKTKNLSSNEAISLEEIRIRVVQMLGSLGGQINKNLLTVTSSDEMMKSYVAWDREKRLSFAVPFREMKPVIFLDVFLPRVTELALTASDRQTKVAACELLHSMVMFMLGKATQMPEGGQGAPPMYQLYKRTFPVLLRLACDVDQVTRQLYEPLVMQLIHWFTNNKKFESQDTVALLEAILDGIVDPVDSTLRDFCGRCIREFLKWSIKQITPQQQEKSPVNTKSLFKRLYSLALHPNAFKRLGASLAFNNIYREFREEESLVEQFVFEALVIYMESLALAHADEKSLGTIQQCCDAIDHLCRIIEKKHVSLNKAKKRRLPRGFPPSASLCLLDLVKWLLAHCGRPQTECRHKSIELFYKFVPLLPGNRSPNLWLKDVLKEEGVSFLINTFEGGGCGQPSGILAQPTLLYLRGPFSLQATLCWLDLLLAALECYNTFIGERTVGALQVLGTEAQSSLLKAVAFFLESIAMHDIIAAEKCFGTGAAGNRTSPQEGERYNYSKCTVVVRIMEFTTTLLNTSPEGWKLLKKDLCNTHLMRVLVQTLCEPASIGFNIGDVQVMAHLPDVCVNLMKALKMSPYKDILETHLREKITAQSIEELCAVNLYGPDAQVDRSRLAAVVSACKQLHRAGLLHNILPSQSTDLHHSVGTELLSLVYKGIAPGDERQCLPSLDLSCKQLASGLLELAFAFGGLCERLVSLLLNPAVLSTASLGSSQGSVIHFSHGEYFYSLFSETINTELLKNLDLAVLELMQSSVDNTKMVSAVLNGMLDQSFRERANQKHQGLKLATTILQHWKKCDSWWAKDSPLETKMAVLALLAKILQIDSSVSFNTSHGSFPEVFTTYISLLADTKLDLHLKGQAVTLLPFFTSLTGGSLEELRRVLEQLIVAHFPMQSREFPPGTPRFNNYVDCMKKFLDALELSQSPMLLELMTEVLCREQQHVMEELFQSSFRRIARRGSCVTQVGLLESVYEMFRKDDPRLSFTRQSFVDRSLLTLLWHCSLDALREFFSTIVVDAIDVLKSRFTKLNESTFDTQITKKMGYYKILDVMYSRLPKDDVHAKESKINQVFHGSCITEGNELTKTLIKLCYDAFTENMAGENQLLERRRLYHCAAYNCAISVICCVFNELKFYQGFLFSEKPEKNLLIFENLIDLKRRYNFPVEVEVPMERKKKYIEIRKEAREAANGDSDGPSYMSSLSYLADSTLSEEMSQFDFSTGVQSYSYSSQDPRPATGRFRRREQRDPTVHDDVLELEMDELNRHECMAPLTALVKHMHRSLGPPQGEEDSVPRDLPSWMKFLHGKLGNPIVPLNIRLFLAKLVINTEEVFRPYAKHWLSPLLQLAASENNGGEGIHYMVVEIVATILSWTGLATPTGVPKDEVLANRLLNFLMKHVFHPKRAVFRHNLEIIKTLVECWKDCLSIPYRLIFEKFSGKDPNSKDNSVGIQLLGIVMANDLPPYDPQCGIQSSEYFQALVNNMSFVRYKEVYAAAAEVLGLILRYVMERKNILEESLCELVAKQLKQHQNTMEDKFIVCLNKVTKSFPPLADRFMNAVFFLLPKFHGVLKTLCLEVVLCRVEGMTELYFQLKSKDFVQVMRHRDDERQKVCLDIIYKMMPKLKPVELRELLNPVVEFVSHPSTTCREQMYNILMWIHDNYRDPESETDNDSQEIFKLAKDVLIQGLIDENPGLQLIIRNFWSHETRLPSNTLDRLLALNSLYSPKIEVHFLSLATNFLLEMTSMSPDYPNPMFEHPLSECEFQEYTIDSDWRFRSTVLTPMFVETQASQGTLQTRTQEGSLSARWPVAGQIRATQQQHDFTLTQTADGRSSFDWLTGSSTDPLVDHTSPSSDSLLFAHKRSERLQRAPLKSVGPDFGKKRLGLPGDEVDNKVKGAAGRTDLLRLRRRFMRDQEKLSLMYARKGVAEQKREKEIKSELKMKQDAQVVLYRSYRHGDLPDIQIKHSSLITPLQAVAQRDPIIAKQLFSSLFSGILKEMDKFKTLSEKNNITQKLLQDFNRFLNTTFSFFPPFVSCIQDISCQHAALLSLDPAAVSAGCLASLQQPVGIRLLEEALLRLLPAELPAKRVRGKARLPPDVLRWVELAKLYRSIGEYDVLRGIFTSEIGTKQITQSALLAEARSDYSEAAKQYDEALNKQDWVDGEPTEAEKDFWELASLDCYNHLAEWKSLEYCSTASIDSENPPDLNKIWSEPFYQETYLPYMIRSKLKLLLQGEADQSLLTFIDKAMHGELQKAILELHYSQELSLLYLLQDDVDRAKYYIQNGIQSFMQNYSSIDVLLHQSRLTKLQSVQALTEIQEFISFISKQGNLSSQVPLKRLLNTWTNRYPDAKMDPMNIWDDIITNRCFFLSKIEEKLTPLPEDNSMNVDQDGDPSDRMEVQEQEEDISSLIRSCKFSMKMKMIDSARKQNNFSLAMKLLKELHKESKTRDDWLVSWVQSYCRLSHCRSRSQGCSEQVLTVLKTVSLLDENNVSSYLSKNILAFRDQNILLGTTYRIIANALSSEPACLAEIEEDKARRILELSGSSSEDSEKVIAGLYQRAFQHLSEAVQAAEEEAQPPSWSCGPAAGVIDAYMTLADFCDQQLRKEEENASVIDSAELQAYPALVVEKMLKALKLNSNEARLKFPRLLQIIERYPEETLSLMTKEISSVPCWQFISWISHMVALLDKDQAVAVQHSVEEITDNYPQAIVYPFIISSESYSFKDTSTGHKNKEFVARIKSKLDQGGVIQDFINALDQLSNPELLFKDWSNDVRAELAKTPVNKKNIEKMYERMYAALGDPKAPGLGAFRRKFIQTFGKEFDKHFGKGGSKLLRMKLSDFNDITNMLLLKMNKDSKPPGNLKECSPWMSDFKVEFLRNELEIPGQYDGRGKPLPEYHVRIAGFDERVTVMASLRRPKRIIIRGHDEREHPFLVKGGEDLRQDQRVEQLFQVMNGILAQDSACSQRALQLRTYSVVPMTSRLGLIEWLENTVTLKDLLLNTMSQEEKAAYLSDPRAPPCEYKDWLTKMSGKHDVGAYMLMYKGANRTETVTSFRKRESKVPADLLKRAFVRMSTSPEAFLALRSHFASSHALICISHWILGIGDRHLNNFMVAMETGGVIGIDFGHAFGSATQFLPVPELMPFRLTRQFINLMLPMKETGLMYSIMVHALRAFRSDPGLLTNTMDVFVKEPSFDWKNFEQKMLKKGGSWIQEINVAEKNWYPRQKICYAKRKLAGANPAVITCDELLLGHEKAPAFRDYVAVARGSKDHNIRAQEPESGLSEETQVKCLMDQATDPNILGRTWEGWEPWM
UniProt P09874, residues 2-1014: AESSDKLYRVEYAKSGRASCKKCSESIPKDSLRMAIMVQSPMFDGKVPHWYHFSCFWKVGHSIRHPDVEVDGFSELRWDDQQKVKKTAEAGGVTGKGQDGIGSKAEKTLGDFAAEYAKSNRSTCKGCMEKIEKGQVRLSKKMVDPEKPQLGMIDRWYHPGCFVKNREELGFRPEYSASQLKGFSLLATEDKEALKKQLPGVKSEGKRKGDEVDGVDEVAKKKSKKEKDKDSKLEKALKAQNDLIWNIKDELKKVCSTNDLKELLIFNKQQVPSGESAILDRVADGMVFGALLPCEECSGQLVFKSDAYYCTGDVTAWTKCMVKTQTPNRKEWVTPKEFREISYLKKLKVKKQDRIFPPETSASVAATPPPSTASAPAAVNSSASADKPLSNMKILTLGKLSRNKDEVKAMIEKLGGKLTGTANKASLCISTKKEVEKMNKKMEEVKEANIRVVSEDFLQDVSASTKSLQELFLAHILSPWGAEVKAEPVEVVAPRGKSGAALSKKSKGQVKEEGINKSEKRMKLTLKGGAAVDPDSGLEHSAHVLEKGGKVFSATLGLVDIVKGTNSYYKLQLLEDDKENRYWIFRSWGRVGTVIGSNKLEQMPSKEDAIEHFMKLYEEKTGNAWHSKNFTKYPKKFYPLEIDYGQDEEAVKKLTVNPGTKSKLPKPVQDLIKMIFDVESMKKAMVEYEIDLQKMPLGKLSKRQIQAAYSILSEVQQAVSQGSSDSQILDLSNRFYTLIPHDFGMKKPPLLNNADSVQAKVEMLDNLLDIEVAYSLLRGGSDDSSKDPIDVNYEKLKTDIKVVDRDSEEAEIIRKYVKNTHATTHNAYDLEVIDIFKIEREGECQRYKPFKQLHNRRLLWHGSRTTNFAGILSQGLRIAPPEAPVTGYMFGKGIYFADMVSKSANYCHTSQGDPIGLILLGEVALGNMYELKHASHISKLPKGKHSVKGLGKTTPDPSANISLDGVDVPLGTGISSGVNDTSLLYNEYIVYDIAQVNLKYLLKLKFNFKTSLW
UniProt P50549: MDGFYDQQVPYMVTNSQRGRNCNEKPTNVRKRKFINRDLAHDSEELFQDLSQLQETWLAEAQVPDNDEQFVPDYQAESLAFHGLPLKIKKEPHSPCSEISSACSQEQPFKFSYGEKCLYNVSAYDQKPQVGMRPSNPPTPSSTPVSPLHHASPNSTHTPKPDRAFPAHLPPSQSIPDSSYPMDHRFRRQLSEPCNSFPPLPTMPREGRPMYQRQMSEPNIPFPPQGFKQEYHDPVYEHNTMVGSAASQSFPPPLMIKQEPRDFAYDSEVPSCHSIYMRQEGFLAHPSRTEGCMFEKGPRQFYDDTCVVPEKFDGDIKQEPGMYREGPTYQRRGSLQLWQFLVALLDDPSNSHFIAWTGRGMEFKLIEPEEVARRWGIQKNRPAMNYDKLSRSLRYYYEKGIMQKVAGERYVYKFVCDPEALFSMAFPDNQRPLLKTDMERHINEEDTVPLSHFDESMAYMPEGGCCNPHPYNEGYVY

These are yes or no findings as the source states them, for the method shown. Some binding calls cover weakened binding; strength is not graded here. For part of these data: Tags and fused reporters may be left off the sequences shown.

Turning to ETV1-FLAG (from UniProt P50549 1-477), the binding entry in assay [1] and in assay [2] was “binds” in each case. With “poly-(ADP-ribose) polymerase (PARP1) (from UniProt P09874 2-1014) (enzyme)”, in assay [3], the binding result was “binds”.

The values above are taken from US20120035244A1, “PARP1 TARGETED THERAPY” (THE REGENTS OF THE UNIVERSITY OF MICHIGAN, priority 2010, published 2012).
